System: mouse model of generalised seizure (tonic hind limb extensor convulsions)
Assay: mini-MEST (maximal electroshock seizure threshold) test in the mouse
Conditions: 2.5 mg/kg i.p., 30 min post dose, N=6
Method: The maximal electroshock seizure threshold (MEST) test is widely utilized preclinically to evaluate pro- or anti-convulsant properties of test compounds (Loscher et al., 1991).
In the MEST test the ability of a drug to alter the seizure threshold current required to induce hind limb tonic extensor convulsions is measured according to an “up and down” method of shock titration (Kimball et al., 1957). An increase in seizure threshold is indicative of anti-convulsant effect.
The ability of a test compound to alter the stimulus intensity, expressed as current (mA), required to induce the presence of tonic hind limb extensor convulsions, is assessed in the MEST.
Naïve mice were acclimatized to the procedure room in their home cages for up to 7 days, with food and water available ad libitum.
All animals were weighed at the beginning of the study and randomly assigned to treatment groups based on a mean distribution of body weight across groups.
The first animal within a treatment group was given a shock at the expected or estimated CC50 current. […]
Test compound effects were also calculated as percentage change in CC50 from the vehicle control group.
Significant difference between drug-treated animals and controls were assessed according to Litchfield and Wilcoxon (1949).

## CN1C(=O)CN=C(c2ccccc2)c2cc(Cl)ccc21 [Diazepam, diazepam, reference compound]
  CC50 +/- SEM (current required for 50% of the animals to show seizure behaviour): 97.8 ± 3.7 mA
Listed as diazepam
  CC50 +/- SEM (current required for 50% of the animals to show seizure behaviour): 97.8 mA
